This passage reports binding results from publication doi:10.1101/857904.

Chains of the proteins cited; added tags and fusions are not shown. Residues count along the entry.
UniProt P30530, residues 26-894: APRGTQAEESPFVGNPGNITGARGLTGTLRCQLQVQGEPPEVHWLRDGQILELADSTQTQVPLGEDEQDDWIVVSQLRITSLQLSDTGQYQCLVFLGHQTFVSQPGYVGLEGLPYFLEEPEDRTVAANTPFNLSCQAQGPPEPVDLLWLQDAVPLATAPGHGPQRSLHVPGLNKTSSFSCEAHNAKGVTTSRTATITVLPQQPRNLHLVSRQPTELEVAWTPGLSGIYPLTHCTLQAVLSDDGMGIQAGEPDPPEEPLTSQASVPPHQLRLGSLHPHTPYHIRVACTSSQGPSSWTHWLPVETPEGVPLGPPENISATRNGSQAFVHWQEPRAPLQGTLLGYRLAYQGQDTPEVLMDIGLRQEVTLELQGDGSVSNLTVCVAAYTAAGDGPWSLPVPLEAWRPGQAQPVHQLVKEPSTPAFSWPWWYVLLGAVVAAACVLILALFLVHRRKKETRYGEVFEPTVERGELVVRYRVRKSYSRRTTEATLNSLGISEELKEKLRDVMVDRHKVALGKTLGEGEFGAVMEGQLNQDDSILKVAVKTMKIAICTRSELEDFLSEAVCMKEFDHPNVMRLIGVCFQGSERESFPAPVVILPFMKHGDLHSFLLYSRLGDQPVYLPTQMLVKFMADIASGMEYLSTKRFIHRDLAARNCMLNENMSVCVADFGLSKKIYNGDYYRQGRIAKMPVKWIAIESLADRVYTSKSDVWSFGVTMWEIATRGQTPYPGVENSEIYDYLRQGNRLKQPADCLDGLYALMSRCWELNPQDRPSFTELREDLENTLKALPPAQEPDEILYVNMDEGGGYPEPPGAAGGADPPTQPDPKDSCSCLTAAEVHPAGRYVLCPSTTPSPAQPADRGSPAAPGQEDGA

No constants are given. Whether binding was seen depends on the method and setting. Binding seen in cells or lysates may run through a third protein.

The assay concerns the target AXL (human (endogenous in 238 R melanoma cells)) (UniProt P30530). Description: co-IP.

B1: DDR2-mCherry (receptor, UniProt Q16832 22-855)
chain: KAQVNPAICRYPLGMSGGQIPDEDITASSQWSESTAAKYGRLDSEEGDGAWCPEIPVEPDDLKEFLQIDLHTLHFITLVGTQGRHAGGHGIEFAPMYKINYSRDGTRWISWRNRHGKQVLDGNSNPYDIFLKDLEPPIVARFVRFIPVTDHSMNVCMRVELYGCVWLDGLVSYNAPAGQQFVLPGGSIIYLNDSVYDGAVGYSMTEGLGQLTDGVSGLDDFTQTHEYHVWPGYDYVGWRNESATNGYIEIMFEFDRIRNFTTMKVHCNNMFAKGVKIFKEVQCYFRSEASEWEPNAISFPLVLDDVNPSARFVTVPLHHRMASAIKCQYHFADTWMMFSEITFQSDAAMYNNSEALPTSPMAPTTYDPMLKVDDSNTRILIGCLVAIIFILLAIIVIILWRQFWQKMLEKASRRMLDDEMTVSLSLPSDSSMFNNNRSSSPSEQGSNSTYDRIFPLRPDYQEPSRLIRKLPEFAPGEEESGCSGVVKPVQPSGPEGVPHYAEADIVNLQGVTGGNTYSVPAVTMDLLSGKDVAVEEFPRKLLTFKEKLGEGQFGEVHLCEVEGMEKFKDKDFALDVSANQPVLVAVKMLRADANKNARNDFLKEIKIMSRLKDPNIIHLLAVCITDDPLCMITEYMENGDLNQFLSRHEPPNSSSSDVRTVSYTNLKFMATQIASGMKYLSSLNFVHRDLATRNCLVGKNYTIKIADFGMSRNLYSGDYYRIQGRAVLPIRWMSWESILLGKFTTASDVWAFGVTLWETFTFCQEQPYSQLSDEQVIENTGEFFRDQGRQTYLPQPAICPDSVYKLMLSCWRRDTKNRPSFQEIHLLLLQQGDE
For the molecule B1, the binding entry is given as “no binding”.
